# Laboratory results published in patent publication US12611415B2, “Methods and compounds for treatment of metabolic disease” (Monash University, priority 2019, dated 2026).
# At least one structure is not confirmed: it was looked up by name or label, or the drawing left a doubt.
# How the values were obtained:
# [1] = system: C57BL6/J mice fed high fat diet (HFD); experiment: Celecoxib prevention study in HFD fed mice; type: in vivo, mouse
# [2] = system: LECs from adult human skin (HMLEC-dLyAd); experiment: Lymphatic endothelial cell (LEC) migration scratch assay with HFD-lymph; type: cell-based; details: 2% HFD-lymph; celecoxib 20 μM, MAZ51 5 μM
# Protocol: LECs from adult human skin (HMLEC-dLyAd) were obtained from Lonza (Australia) at the 3rd passage. Cells were thawed and expanded in a T-75 flask at a minimum density of 500,000 cells per flask. Cells were grown in EGM-2MV BulletKit™ medium (CC-3162, Lonza, Australia), which consisted of EBM-2 basal medium supplemented with an EGM-2 SingleQuots™ kit (Lonza, Australia). Flasks were incubated at 37° C. and 5% CO2, and media was changed 24 h after seeding and then every 48 h. Cells were grown to 70-80% confluence and split every 4-5 days. For all experiments, cells were seeded onto plates or coverslips pre-coated with rat tail collagen Type I (50 μg/ml) for 1 h at 37° C. Cells were allowed to grow to 100% confluence (which typically occurred 1.5-2 days after seeding in a cell culture plate) prior to the start of experiments.
# Once the LECs reached confluence, the impact of lymph fluid on LEC migration was assessed using a standard scratch assay. […]
# Images taken at several time points after wounding (0, 12 and 24 hours) were analyzed using the Fiji distribution of ImageJ to determine the rate of LEC migration over the area of the scratched wound. To enable quantification of the area of the scratch wound, the brightness and contrast of the images was first adjusted to improve the visibility. An outline of the wound was manually drawn and the area of the wound was quantified at each time point. […]
# [3] = system: C57BL6/J mice fed high fat diet (HFD); experiment: Celecoxib / Compound I-1 treatment study in HFD fed mice; type: in vivo, mouse
# Protocol: All animal work was conducted per Australian National Health and Medical Research Council (NHMRC) guidelines for the care and use of animals in research. Seven-week-old male Sprague Dawley rats or C57BL6/J mice were randomized and housed in groups of 2-5 in a temperature-controlled room under specific-pathogen free (SPF) or standard animal housing conditions with free access to food and water.
# In the observational studies, mice or rats were fed semi-purified normal chow diet (control fat diet (CFD), 7% w/w fat and 16% total energy from fat, AIN93G, Specialty Feeds Pty Ltd, Australia) or high fat diet (HFD, 36% w/w fat and 59% total energy from fat, SF03-002, Specialty Feeds Pty Ltd, Australia) for a total duration of 6, 15, 23 or 32 weeks to evaluate changes to mesenteric lymph composition, structure and function over time during the progression of obesity. Mice or rats were fed with the same CFD or HFD for 6-10 weeks prior to collection of mesenteric lymph for in vitro incubation with lymphatic endothelial cells (LECs) and adipocytes, respectively.
# A “prevention study” and a “treatment study” were also conducted. Both the prevention and treatment studies included mice fed the CFD or HFD for 15 or 23 weeks, as described above. In the prevention study, an additional group of mice was fed the HFD supplemented with celecoxib at a dose equivalent to ˜29 mg/kg/day (based on average food intake) for 15 weeks. In the treatment study, animals were fed the HFD for 15 weeks followed by a HFD supplemented with celecoxib (˜29 mg/kg/day) or Compound I-1 (˜9 mg/kg/day celecoxib equivalents) for 7-8 weeks. The celecoxib was purchased from MedChemExpress (NJ, USA), and Compound I-1 was synthesized consistent with the description in WO2016/023082.
# Across all studies, body mass was measured once per week. Oral glucose tolerance tests (OGTTs) were conducted at 5, 14, 22 and/or 31 weeks after commencing feeding mice the HFD or CFD. To perform OGTTs, mice were routinely handled for 2 weeks prior to minimize the stress caused by handling during the experiment. On the day of the OGTT, mice were fasted for 4 h (7-11 am) but still had free access to water. Glucose (50 mg D-glucose in 200 μL water) was administered via oral gavage and a drop of blood was collected from the tail tip at fixed time points (0, 15, 30, 60, 90 and 120 mins). Blood glucose was measured using a One-touch glucometer (AccuCheck Performa, Roche, Switzerland). Plasma was separated from the remaining blood sample via centrifugation and reserved for measurement of plasma insulin concentrations via ELISA as described above.
# At the end of all experiments, mice were euthanised via cervical dislocation and rats were euthanised via intracardiac injection of sodium pentobarbitone (100 mg). Organs and tissues, including the lymph nodes and adipose tissue depots, were carefully collected. The mass of adipose tissue depots was weighed to determine adiposity.
# Mesenteric adipose tissue samples (for lymphatic capillary and mesenteric lymphatic vessel analysis) and small intestine samples (for villi and lacteal analysis) were collected with fine forceps. Whole mount adipose tissue was cut into ˜3 mm×3 mm×2 mm pieces and whole mount small intestine was cut into 1.5 cm segments. Immediately after collection, the tissue samples were fixed in 4% paraformaldehyde in PBS at 4° C. overnight. Fat associated lymph clusters (FALCs) were identified by intraperitoneal injection of FluoSphere Carboxylate-Modified Nanospheres, 100 nm, yellow-green (505/515, Invitrogen, CA, USA) and collected with fine forceps under a Zeiss Stemi 2000-CS surgical microscope (2.5× magnification) with a fluorescence adaptor (Nightsea, MA, USA). The fluorescent light was filtered through a cyan color light filter (Electron Microscopy Science, PA, USA) to visualize the nanospheres and thus the FALCs. FALCs were cleaned of adipose tissue after collected and placed whole in 4% paraformaldehyde in PBS at 4° C. overnight. […]
# [4] = celecoxib 29 mg/kg/day for 15 weeks, mixed with HFD
# [5] = Compound I-1 ~9 mg/kg/day celecoxib equivalents, celecoxib at a 3.2-fold higher dose
# [6] = HFD 15 weeks, then 7 weeks drug in HFD feed
# [7] = HFD 15 weeks, then 7 weeks drug in HFD feed, Compound I-1 ~9 mg/kg/day celecoxib equivalents, celecoxib ~29 mg/kg/day
compound,measurement,setting,value
"Cc1ccc(-c2cc(C(F)(F)F)nn2-c2ccc(S(N)(=O)=O)cc2)cc1 [celecoxib, reference compound]",PGE2 concentration in mesenteric lymph,[1]; [4],reduced
same,VEGF-C concentration in mesenteric lymph,[1]; [4],reduced
same,adiposity,[1]; [4],decreased
same,fasting blood glucose levels,[1]; [4],decreased
same,immune cell accumulation in the mesenteric lymph fluid and nodes,[1]; [4],prevented immune cell accumulation
same,mesenteric lymphatic vessel branching,[1]; [4],effectively prevented the increase
same,mesenteric lymphatic vessel leakiness,[1]; [4],effectively prevented the increase
same,oral glucose tolerance,[1]; [4],improvement
same,weight gain,[1]; [4],decreased
same,immune cell numbers in mesenteric lymph nodes reversed to levels similar to CFD mice,[1]; celecoxib prevention regime,not celecoxib treatment or prevention
same,lymph lipid profile (lipidomic analysis of mesenteric lymph),[1]; celecoxib prevention regime,but not with the celecoxib treatment or prevention regime
same,LEC migration induced by HFD-lymph,[2],inhibited
same,body weight gain induced by HFD (obesity),[3]; [5],significantly reduced
same,hyperinsulinemia in the fasted state and after glucose challenge (insulin resistance),[3]; [5],did not improve
same,oral glucose tolerance,[3]; [5],improved
same,cholesterol levels in mesenteric lymph,[3]; [6],but not celecoxib
same,lymph lipid profile (lipidomic analysis of mesenteric lymph) / lymph composition,[3]; [6],but not with the celecoxib treatment or prevention regime
same,total free fatty acid (FFA) in mesenteric lymph,[3]; [6],but not celecoxib
same,immune cell numbers in mesenteric lymph nodes reversed to levels similar to CFD mice,[3]; [7],not celecoxib treatment or prevention
same,immune cells in the mesenteric lymph fluid,[3]; [7],reduced
same,mesenteric lymph levels of PGE2,[3]; [7],reduced
same,mesenteric lymph levels of VEGF-C,[3]; [7],no impact
